Data as given in the supplement of paper PMC4604168 (melanoma cell lines).
The list shows a part of the results. Single values are uncertain, as repeats are few or missing.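 The apoptosis fraction was the count of cleaved-PARP antibody-stained nuclei relative to all DNA-stained nuclei, imaged in 1,536-well plates. Screening doses were set so most cells survived, and baseline and induced cleaved-PARP levels vary greatly across cell lines.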

System: IST-MEL1
Assay: cleaved PARP positive nuclei fraction relative to DMSO control; melanoma cells; higher = more apoptosis
Conditions: library dose: low library concentration; 72 h

Row | Structure (SMILES) | cleaved PARP positive nuclei fraction [%]
1 | CCc1ccc(CCOc2ccc(CC3SC(=O)NC3=O)cc2)nc1 (stereo not given) [pioglitazone] + Cc1cc([N+](=O)[O-])ccc1NS(=O)(=O)c1cc(Cl)ccc1Cl [FH535] (first compound 2 µM, partner dose 1 µM) | 104
2 | CCN(CC)CCCCNc1ncc2cc(-c3cc(OC)cc(OC)c3)c(NC(=O)NC(C)(C)C)nc2n1 + O=c1cc(-c2cccc3c2Sc2ccccc2S3)oc(N2CCOCC2)c1 [KU55933] (first compound 0.1 µM, partner dose 1 µM) | 131
3 | COc1ccc(COc2ccc(Cc3cnc(N)nc3N)cc2OC)cc1 + O=C1NC(=O)/C(=C/c2ccc(-c3ccc(F)cc3O)o2)S1 [AS252424] (first compound 1 µM, partner dose 1 µM) | 121
4 | Oc1cc(-c2nc(-c3ccccc3)[nH]c2-c2ccncc2)ccc1Cl + Cn1cc(/C=C2\C(=O)Nc3cccnc32)c2ccccc21 [GW441756] (first compound 0.2 µM, partner dose 0.4 µM) | 64.8
5 | NCC(=O)Nc1ccc(-n2nc(C(F)(F)F)cc2-c2ccc3c(ccc4ccccc43)c2)cc1 + Oc1cc(-c2nc(-c3ccccc3)[nH]c2-c2ccncc2)ccc1Cl [L779450] (first compound 1 µM, partner dose 0.2 µM) | 195
6 | O=S(=O)(c1ccccc1)N(CC(F)(F)F)c1ccc(C(O)(C(F)(F)F)C(F)(F)F)cc1 + CC(C)CCN1c2nc(Nc3cc(F)c(O)c(F)c3)ncc2N(C)C(=O)C1C [BID1870] (first compound 1.4 µM, partner dose 0.2 µM) | 170
7 | Cn1cc(/C=C2\C(=O)Nc3cccnc32)c2ccccc21 + CC(C)CCN1c2nc(Nc3cc(F)c(O)c(F)c3)ncc2N(C)C(=O)C1C [BID1870] (first compound 0.4 µM, partner dose 0.2 µM) | 51.6
8 | O=C1NC(=O)/C(=C/c2ccc(-c3ccc(F)cc3O)o2)S1 + COc1cc(N2CCC(N3CCN(C)CC3)CC2)ccc1Nc1ncc(Cl)c(Nc2ccccc2S(=O)(=O)C(C)C)n1 [NVP-TAE684] (first compound 1 µM, partner dose 0.08 µM) | 145
9 | N#Cc1c(O)c2c(-c3ccc(-c4ccccc4O)cc3)csc2[nH]c1=O + CCN(CC)CCCCNc1ncc2cc(-c3cc(OC)cc(OC)c3)c(NC(=O)NC(C)(C)C)nc2n1 [PD173074] (first compound 2 µM, partner dose 0.1 µM) | 60.2
10 | CN(C)S(=O)(=O)c1ccc2c(c1)/C(=C/c1cc3c([nH]1)CCCC3)C(=O)N2 + COc1ccc2c(c1)CCC1C2CCC2(C)C(NCCCCCCN3C(=O)C=CC3=O)CCC12 [U73122] (first compound 0.4 µM, partner dose 0.4 µM) | 86.8
11 | Oc1cc(-c2nc(-c3ccccc3)[nH]c2-c2ccncc2)ccc1Cl + c1cc(-c2cnn3cc(-c4ccc(OCCN5CCCCC5)cc4)cnc23)ccn1 [Dorsomorphin] (first compound 0.2 µM, partner dose 0.4 µM) | 58.9
12 | Oc1nc(-c2ccc(C(F)(F)F)cc2)nc2c1CSCC2 + CCCCCCCCCCCC1=C(O)C(=O)C=C(O)C1=O [Embelin] (first compound 2 µM, partner dose 1.2 µM) | 114
13 | CN(C)S(=O)(=O)c1ccc2c(c1)/C(=C/c1cc3c([nH]1)CCCC3)C(=O)N2 + CCN(CC)CCCCNc1ncc2cc(-c3cc(OC)cc(OC)c3)c(NC(=O)NC(C)(C)C)nc2n1 [PD173074] (first compound 0.4 µM, partner dose 0.1 µM) | 92.1
14 | COc1ccc(-c2ccc3c(N4CCOCC4)nc(N4C[C@@H](C)O[C@@H](C)C4)nc3n2)cc1CO + O=c1cc(-c2cccc3c2Sc2ccccc2S3)oc(N2CCOCC2)c1 [KU55933] (first compound 0.02 µM, partner dose 1 µM) | 85.9
15 | NCC(=O)Nc1ccc(-n2nc(C(F)(F)F)cc2-c2ccc3c(ccc4ccccc43)c2)cc1 + Cn1cc(/C=C2\C(=O)Nc3cccnc32)c2ccccc21 [GW441756] (first compound 1 µM, partner dose 0.4 µM) | 88.9
16 | COc1ccc(-c2ccc3c(N4CCOCC4)nc(N4C[C@@H](C)O[C@@H](C)C4)nc3n2)cc1CO + CC(C)CCN1c2nc(Nc3cc(F)c(O)c(F)c3)ncc2N(C)C(=O)C1C [BID1870] (first compound 0.02 µM, partner dose 0.2 µM) | 106
17 | CCN(CC)CCCCNc1ncc2cc(-c3cc(OC)cc(OC)c3)c(NC(=O)NC(C)(C)C)nc2n1 + Cc1cc([N+](=O)[O-])ccc1NS(=O)(=O)c1cc(Cl)ccc1Cl [FH535] (first compound 0.1 µM, partner dose 1 µM) | 95.5
18 | COc1cc2c(Oc3ccc4[nH]c(C)cc4c3F)ncnc2cc1OCCCN1CCCC1 [cediranib] + CCN(CC)CCCCNc1ncc2cc(-c3cc(OC)cc(OC)c3)c(NC(=O)NC(C)(C)C)nc2n1 [PD173074] (first compound 0.4 µM, partner dose 0.1 µM) | 33.3
19 | O=C(O)c1ccc(-c2c[nH]c3ncc(-c4ccccc4)cc23)cc1C1CCCC1 + Cn1cc(/C=C2\C(=O)Nc3cccnc32)c2ccccc21 [GW441756] (first compound 0.16 µM, partner dose 0.4 µM) | 141
20 | O=C(O)c1ccc(-c2c[nH]c3ncc(-c4ccccc4)cc23)cc1C1CCCC1 + Oc1nc(-c2ccc(C(F)(F)F)cc2)nc2c1CSCC2 [XAV939] (first compound 0.16 µM, partner dose 2 µM) | 226
21 | N#Cc1c(O)c2c(-c3ccc(-c4ccccc4O)cc3)csc2[nH]c1=O + COc1cc(N2CCC(N3CCN(C)CC3)CC2)ccc1Nc1ncc(Cl)c(Nc2ccccc2S(=O)(=O)C(C)C)n1 [NVP-TAE684] (first compound 2 µM, partner dose 0.08 µM) | 56.5
22 | Oc1cc(-c2nc(-c3ccccc3)[nH]c2-c2ccncc2)ccc1Cl + COc1cc(N2CCC(N3CCN(C)CC3)CC2)ccc1Nc1ncc(Cl)c(Nc2ccccc2S(=O)(=O)C(C)C)n1 [NVP-TAE684] (first compound 0.2 µM, partner dose 0.08 µM) | 33.8
23 | COc1ccc2c(c1)CCC1C2CCC2(C)C(NCCCCCCN3C(=O)C=CC3=O)CCC12 (stereo not given) + Oc1cc(-c2nc(-c3ccccc3)[nH]c2-c2ccncc2)ccc1Cl [L779450] (first compound 0.4 µM, partner dose 0.2 µM) | 119
24 | COc1cc2c(Oc3ccc4[nH]c(C)cc4c3F)ncnc2cc1OCCCN1CCCC1 [cediranib] + Oc1cc(-c2nc(-c3ccccc3)[nH]c2-c2ccncc2)ccc1Cl [L779450] (first compound 0.4 µM, partner dose 0.2 µM) | 58.9
25 | O=S(=O)(c1ccccc1)N(CC(F)(F)F)c1ccc(C(O)(C(F)(F)F)C(F)(F)F)cc1 + Cn1cc(/C=C2\C(=O)Nc3cccnc32)c2ccccc21 [GW441756] (first compound 1.4 µM, partner dose 0.4 µM) | 113
26 | N#Cc1c(O)c2c(-c3ccc(-c4ccccc4O)cc3)csc2[nH]c1=O + CC(C)CCN1c2nc(Nc3cc(F)c(O)c(F)c3)ncc2N(C)C(=O)C1C [BID1870] (first compound 2 µM, partner dose 0.2 µM) | 29.1
27 | O=S(=O)(c1ccccc1)N(CC(F)(F)F)c1ccc(C(O)(C(F)(F)F)C(F)(F)F)cc1 + Oc1cc(-c2nc(-c3ccccc3)[nH]c2-c2ccncc2)ccc1Cl [L779450] (first compound 1.4 µM, partner dose 0.2 µM) | 114
28 | CN(NC(=O)CC(=O)NN(C)C(=S)c1ccccc1)C(=S)c1ccccc1 + COC(=O)c1sccc1S(=O)(=O)Nc1ccc(Nc2ccccc2)cc1OC [GSK0660] (first compound 0.006 µM, partner dose 1 µM) | 200
29 | COc1cc2c(Oc3ccc4[nH]c(C)cc4c3F)ncnc2cc1OCCCN1CCCC1 [cediranib] + O=C(O)C(=O)Nc1sc2c(c1C(=O)O)CCNC2 [TCS401] (first compound 0.4 µM, partner dose 1.66667 µM) | 38.6
30 | COC(=O)c1sccc1S(=O)(=O)Nc1ccc(Nc2ccccc2)cc1OC + CCCCCCCCCCCC1=C(O)C(=O)C=C(O)C1=O [Embelin] (first compound 1 µM, partner dose 1.2 µM) | 44.2

Shown with tabs: entries from further up.
Row	Structure (SMILES)	cleaved PARP positive nuclei fraction [%]
3	COc1ccc(COc2ccc(Cc3cnc(N)nc3N)cc2OC)cc1 + O=C1NC(=O)/C(=C/c2ccc(-c3ccc(F)cc3O)o2)S1 [AS252424] (first compound 1 µM, partner dose 1 µM)	121
4	Oc1cc(-c2nc(-c3ccccc3)[nH]c2-c2ccncc2)ccc1Cl + Cn1cc(/C=C2\C(=O)Nc3cccnc32)c2ccccc21 [GW441756] (first compound 0.2 µM, partner dose 0.4 µM)	64.8
